Results are given in words; binding and its absence hold for the method and conditions named. Some binding calls cover weakened binding; strength is not graded here.
Target: soluble wild-type HCMV gp34 ectodomain (human cytomegalovirus (HCMV), strain AD169) (UniProt P16809)
Assay: ELISA, plate coated human Fc, FLAG-tagged WT gp34, anti-FLAG (M2)-HRP

By UniProt entry, the sequences of proteins in these tests, tags left out. Where a name states a change or a piece, a line headed by the entry shows the natural chain unless it says otherwise.
UniProt P16809: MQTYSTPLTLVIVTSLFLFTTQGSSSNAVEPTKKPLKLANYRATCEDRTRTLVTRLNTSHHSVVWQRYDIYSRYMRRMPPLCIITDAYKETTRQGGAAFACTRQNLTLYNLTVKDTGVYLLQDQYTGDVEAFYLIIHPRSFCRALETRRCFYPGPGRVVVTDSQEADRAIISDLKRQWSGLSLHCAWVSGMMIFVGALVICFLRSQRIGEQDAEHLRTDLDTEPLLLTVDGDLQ

**Q.** “human IgG1 Fc (no Fab arms) (from UniProt P0DOX5 230-449)” was tested. Which binding did it give?
**A.** The binding was “binds”.
